# Taken from: PubChem BioAssay AID1224830 (NIAID, 2016)
# Aim: 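Host factors that control LPS-induced TNF expression in human macrophages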 (primary screen)
# Cell system: human THP-1 monocytic leukaemia cells, TNF dual-luciferase reporter clone, PMA-differentiated to macrophage-like cells
# Reagent: siRNA pool against human genes, 50 nM
# Timing: LPS for 4 h, given about 3 days after siRNA transfection
# Conditions: bacterial LPS (TLR4 ligand), 10 ng/ml
# Detection: 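Ratio of firefly to renilla light, scaled to the plate median and expressed as a robust z-score per replicate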
# Reading the numbers: TNF reporter robust z-score: higher = stronger TNF reporter response to LPS
# Call rule: 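a well is active when its z-score exceeds 2.8 or falls below -1.5; control wells carry no call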
# Here is an unselected part of about 18,000 deposited reagents. In the full data, about 2,900 (16%) were called active. 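Calls are made per well; low scores hint the gene aids the LPS response, high scores that it dampens it.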 Repeated entries: four replicate wells of each siRNA pool.
gene symbol,PubChem SID,TNF reporter robust z-score,Outcome
IKZF2 (GeneID 22807),SID315454789,-0.8,inactive
IKZF2 (GeneID 22807),SID315454789,0.47,inactive
IKZF2 (GeneID 22807),SID315454789,-0.69,inactive
IKZF2 (GeneID 22807),SID315454789,1.15,inactive
RPL26 (GeneID 6154),SID315451191,1.1,inactive
RPL26 (GeneID 6154),SID315451191,1.38,inactive
RPL26 (GeneID 6154),SID315451191,1.98,inactive
RPL26 (GeneID 6154),SID315451191,1.3,inactive
PLA2G2A (GeneID 5320),SID315450614,-0.41,inactive
PLA2G2A (GeneID 5320),SID315450614,-0.06,inactive
PLA2G2A (GeneID 5320),SID315450614,-0.69,inactive
PLA2G2A (GeneID 5320),SID315450614,0.51,inactive
PES1 (GeneID 23481),SID315455272,0,inactive
PES1 (GeneID 23481),SID315455272,1.15,inactive
PES1 (GeneID 23481),SID315455272,3.28,active
PES1 (GeneID 23481),SID315455272,1.05,inactive
FLCN (GeneID 201163),SID315463061,-1.15,inactive
FLCN (GeneID 201163),SID315463061,-0.81,inactive
FLCN (GeneID 201163),SID315463061,-0.51,inactive
FLCN (GeneID 201163),SID315463061,0.46,inactive
TTC22 (GeneID 55001),SID315457333,0.43,inactive
TTC22 (GeneID 55001),SID315457333,1.84,inactive
TTC22 (GeneID 55001),SID315457333,0.22,inactive
TTC22 (GeneID 55001),SID315457333,1.6,inactive

The list goes on; the last 4 above are carried over.
gene symbol,PubChem SID,TNF reporter robust z-score,Outcome
TTC22 (GeneID 55001),SID315457333,0.43,inactive
TTC22 (GeneID 55001),SID315457333,1.84,inactive
TTC22 (GeneID 55001),SID315457333,0.22,inactive
TTC22 (GeneID 55001),SID315457333,1.6,inactive
SLC30A6 (GeneID 55676),SID315457764,0.62,inactive
SLC30A6 (GeneID 55676),SID315457764,0.92,inactive
SLC30A6 (GeneID 55676),SID315457764,-0.09,inactive
SLC30A6 (GeneID 55676),SID315457764,0.01,inactive
RPL39L (GeneID 116832),SID315461388,-0.89,inactive
RPL39L (GeneID 116832),SID315461388,-0.15,inactive
RPL39L (GeneID 116832),SID315461388,-0.06,inactive
RPL39L (GeneID 116832),SID315461388,0.27,inactive
TENM3 (GeneID 55714),SID315457793,-0.15,inactive
TENM3 (GeneID 55714),SID315457793,-0.73,inactive
TENM3 (GeneID 55714),SID315457793,-0.3,inactive
TENM3 (GeneID 55714),SID315457793,-0.63,inactive
GOSR2 (GeneID 9570),SID315453391,-1.24,inactive
GOSR2 (GeneID 9570),SID315453391,-0.69,inactive
GOSR2 (GeneID 9570),SID315453391,-0.99,inactive
GOSR2 (GeneID 9570),SID315453391,-0.63,inactive
WDR26 (GeneID 80232),SID315459716,0.47,inactive
WDR26 (GeneID 80232),SID315459716,0.84,inactive
WDR26 (GeneID 80232),SID315459716,-0.26,inactive
WDR26 (GeneID 80232),SID315459716,0.03,inactive
SAR1B (GeneID 51128),SID315456495,1.27,inactive
SAR1B (GeneID 51128),SID315456495,0.57,inactive
SAR1B (GeneID 51128),SID315456495,1.78,inactive
SAR1B (GeneID 51128),SID315456495,0.23,inactive
